A short description of the data set: Proteomics analysis (trypsin digest, LC-MS/MS) of hMSC ghosts and derived CDLs, conditioned or unconditioned by PC3 medium. Set-up: species or system human. The note with it: LC-MS/MS peak area per protein; for Ratio of expression Cond. CDLs/Cond. Ghosts: CDLs derived from conditioned hMSCs versus conditioned ghosts; for Ratio of expression Cond Ghosts/Ghosts: hMSC ghosts conditioned by PC3 medium versus unconditioned ghosts.

B1: P36776 (protein, UniProt P36776 1-959, looked up)
chain: MAASTGYVRLWGAARCWVLRRPMLAAAGGRVPTAAGAWLLRGQRTCDASPPWALWGRGPAIGGQWRGFWEASSRGGGAFSGGEDASEGGAEEGAGGAGGSAGAGEGPVITALTPMTIPDVFPHLPLIAITRNPVFPRFIKIIEVKNKKLVELLRRKVRLAQPYVGVFLKRDDSNESDVVESLDEIYHTGTFAQIHEMQDLGDKLRMIVMGHRRVHISRQLEVEPEEPEAENKHKPRRKSKRGKKEAEDELSARHPAELAMEPTPELPAEVLMVEVENVVHEDFQVTEEVKALTAEIVKTIRDIIALNPLYRESVLQMMQAGQRVVDNPIYLSDMGAALTGAESHELQDVLEETNIPKRLYKALSLLKKEFELSKLQQRLGREVEEKIKQTHRKYLLQEQLKIIKKELGLEKDDKDAIEEKFRERLKELVVPKHVMDVVDEELSKLGLLDNHSSEFNVTRNYLDWLTSIPWGKYSNENLDLARAQAVLEEDHYGMEDVKKRILEFIAVSQLRGSTQGKILCFYGPPGVGKTSIARSIARALNREYFRFSVGGMTDVAEIKGHRRTYVGAMPGKIIQCLKKTKTENPLILIDEVDKIGRGYQGDPSSALLELLDPEQNANFLDHYLDVPVDLSKVLFICTANVTDTIPEPLRDRMEMINVSGYVAQEKLAIAERYLVPQARALCGLDESKAKLSSDVLTLLIKQYCRESGVRNLQKQVEKVLRKSAYKIVSGEAESVEVTPENLQDFVGKPVFTVERMYDVTPPGVVMGLAWTAMGGSTLFVETSLRRPQDKDAKGDKDGSLEVTGQLGEVMKESARIAYTFARAFLMQHAPANDYLVTSHIHLHVPEGATPKDGPSAGCTIVTALLSLAMGRPVRQNLAMTGEVSLTGKILPVGGIKEKTIAAKRAGVTCIVLPAENKKDFYDLAAFITEGLEVHFVEHYREIFDIAFPDEQAEALAVER
modifications: full-length
Consider B1, for which the “Ratio of expression Cond. CDLs/Cond. Ghosts” value was 4% and the “Ratio of expression Cond Ghosts/Ghosts” value amounted to 100%.

B2: P54886 (protein, UniProt P54886 1-795, looked up)
chain: MLSQVYRCGFQPFNQHLLPWVKCTTVFRSHCIQPSVIRHVRSWSNIPFITVPLSRTHGKSFAHRSELKHAKRIVVKLGSAVVTRGDECGLALGRLASIVEQVSVLQNQGREMMLVTSGAVAFGKQRLRHEILLSQSVRQALHSGQNQLKEMAIPVLEARACAAAGQSGLMALYEAMFTQYSICAAQILVTNLDFHDEQKRRNLNGTLHELLRMNIVPIVNTNDAVVPPAEPNSDLQGVNVISVKDNDSLAARLAVEMKTDLLIVLSDVEGLFDSPPGSDDAKLIDIFYPGDQQSVTFGTKSRVGMGGMEAKVKAALWALQGGTSVVIANGTHPKVSGHVITDIVEGKKVGTFFSEVKPAGPTVEQQGEMARSGGRMLATLEPEQRAEIIHHLADLLTDQRDEILLANKKDLEEAEGRLAAPLLKRLSLSTSKLNSLAIGLRQIAASSQDSVGRVLRRTRIAKNLELEQVTVPIGVLLVIFESRPDCLPQVAALAIASGNGLLLKGGKEAAHSNRILHLLTQEALSIHGVKEAVQLVNTREEVEDLCRLDKMIDLIIPRGSSQLVRDIQKAAKGIPVMGHSEGICHMYVDSEASVDKVTRLVRDSKCEYPAACNALETLLIHRDLLRTPLFDQIIDMLRVEQVKIHAGPKFASYLTFSPSEVKSLRTEYGDLELCIEVVDNVQDAIDHIHKYGSSHTDVIVTEDENTAEFFLQHVDSACVFWNASTRFSDGYRFGLGAEVGISTSRIHARGPVGLEGLLTTKWLLRGKDHVVSDFSEHGSLKYLHENLPIPQRNTN
modifications: full-length
B2: the “Ratio of expression Cond. CDLs/Cond. Ghosts” value was 4% and the “Ratio of expression Cond Ghosts/Ghosts” value was 100%.

B3: Q5JRX3 (protein, UniProt Q5JRX3 1-1037, looked up)
chain: MWRCGGRQGLCVLRRLSGGHAHHRAWRWNSNRACERALQYKLGDKIHGFTVNQVTSVPELFLTAVKLTHDDTGARYLHLAREDTNNLFSVQFRTTPMDSTGVPHILEHTVLCGSQKYPCRDPFFKMLNRSLSTFMNAFTASDYTLYPFSTQNPKDFQNLLSVYLDATFFPCLRELDFWQEGWRLEHENPSDPQTPLVFKGVVFNEMKGAFTDNERIFSQHLQNRLLPDHTYSVVSGGDPLCIPELTWEQLKQFHATHYHPSNARFFTYGNFPLEQHLKQIHEEALSKFQKIEPSTVVPAQTPWDKPREFQITCGPDSFATDPSKQTTISVSFLLPDITDTFEAFTLSLLSSLLTSGPNSPFYKALIESGLGTDFSPDVGYNGYTREAYFSVGLQGIAEKDIETVRSLIDRTIDEVVEKGFEDDRIEALLHKIEIQMKHQSTSFGLMLTSYIASCWNHDGDPVELLKLGNQLAKFRQCLQENPKFLQEKVKQYFKNNQHKLTLSMRPDDKYHEKQAQVEATKLKQKVEALSPGDRQQIYEKGLELRSQQSKPQDASCLPALKVSDIEPTIPVTELDVVLTAGDIPVQYCAQPTNGMVYFRAFSSLNTLPEELRPYVPLFCSVLTKLGCGLLDYREQAQQIELKTGGMSASPHVLPDDSHMDTYEQGVLFSSLCLDRNLPDMMQLWSEIFNNPCFEEEEHFKVLVKMTAQELANGIPDSGHLYASIRAGRTLTPAGDLQETFSGMDQVRLMKRIAEMTDIKPILRKLPRIKKHLLNGDNMRCSVNATPQQMPQTEKAVEDFLRSIGRSKKERRPVRPHTVEKPVPSSSGGDAHVPHGSQVIRKLVMEPTFKPWQMKTHFLMPFPVNYVGECIRTVPYTDPDHASLKILARLMTAKFLHTEIREKGGAYGGGAKLSHNGIFTLYSYRDPNTIETLQSFGKAVDWAKSGKFTQQDIDEAKLSVFSTVDAPVAPSDKGMDHFLYGLSDEMKQAHREQLFAVSHDKLLAVSDRYLGTGKSTHGLAILGPENPKIAKDPSWIIQ
modifications: full-length
As for B3, the “Ratio of expression Cond. CDLs/Cond. Ghosts” value came out at 4% and the “Ratio of expression Cond Ghosts/Ghosts” value was 100%.

B4: Q96I99 (protein, UniProt Q96I99 1-432, looked up)
chain: MASPVAAQAGKLLRALALRPRFLAAGSQAVQLTSRRWLNLQEYQSKKLMSDNGVRVQRFFVADTANEALEAAKRLNAKEIVLKAQILAGGRGKGVFNSGLKGGVHLTKDPNVVGQLAKQMIGYNLATKQTPKEGVKVNKVMVAEALDISRETYLAILMDRSCNGPVLVGSPQGGVDIEEVAASNPELIFKEQIDIFEGIKDSQAQRMAENLGFVGPLKSQAADQITKLYNLFLKIDATQVEVNPFGETPEGQVVCFDAKINFDDNAEFRQKDIFAMDDKSENEPIENEAAKYDLKYIGLDGNIACFVNGAGLAMATCDIIFLNGGKPANFLDLGGGVKEAQVYQAFKLLTADPKVEAILVNIFGGIVNCAIIANGITKACRELELKVPLVVRLEGTNVQEAQKILNNSGLPITSAIDLEDAAKKAVASVAKK
modifications: full-length
As to B4, the “Ratio of expression Cond. CDLs/Cond. Ghosts” value is on record as 3% and the “Ratio of expression Cond Ghosts/Ghosts” value stood at 100%.

B5: Q14165 (protein, UniProt Q14165 1-292, looked up)
chain: MLGAWAVEGTAVALLRLLLLLLPPAIRGPGLGVAGVAGAAGAGLPESVIWAVNAGGEAHVDVHGIHFRKDPLEGRVGRASDYGMKLPILRSNPEDQILYQTERYNEETFGYEVPIKEEGDYVLVLKFAEVYFAQSQQKVFDVRLNGHVVVKDLDIFDRVGHSTAHDEIIPMSIRKGKLSVQGEVSTFTGKLYIEFVKGYYDNPKVCALYIMAGTVDDVPKLQPHPGLEKKEEEEEEEEYDEGSNLKKQTNKNRVQSGPRTPNPYASDNSSLMFPILVAFGVFIPTLFCLCRL
modifications: full-length
For the molecule B5, the “Ratio of expression Cond. CDLs/Cond. Ghosts” value is reported as 3% and the “Ratio of expression Cond Ghosts/Ghosts” value is 100%.

B6: Q6PIU2 (protein, UniProt Q6PIU2 1-408, looked up)
chain: MRSSCVLLTALVALAAYYVYIPLPGSVSDPWKLMLLDATFRGAQQVSNLIHYLGLSHHLLALNFIIVSFGKKSAWSSAQVKVTDTDFDGVEVRVFEGPPKPEEPLKRSVVYIHGGGWALASAKIRYYDELCTAMAEELNAVIVSIEYRLVPKVYFPEQIHDVVRATKYFLKPEVLQKYMVDPGRICISGDSAGGNLAAALGQQFTQDASLKNKLKLQALIYPVLQALDFNTPSYQQNVNTPILPRYVMVKYWVDYFKGNYDFVQAMIVNNHTSLDVEEAAAVRARLNWTSLLPASFTKNYKPVVQTTGNARIVQELPQLLDARSAPLIADQAVLQLLPKTYILTCEHDVLRDDGIMYAKRLESAGVEVTLDHFEDGFHGCMIFTSWPTNFSVGIRTRNSYIKWLDQNL
modifications: full-length
As for B6, the “Ratio of expression Cond. CDLs/Cond. Ghosts” value is recorded as 3% and the “Ratio of expression Cond Ghosts/Ghosts” value was 100%.

B7: P10515 (protein, UniProt P10515 1-647, looked up)
chain: MWRVCARRAQNVAPWAGLEARWTALQEVPGTPRVTSRSGPAPARRNSVTTGYGGVRALCGWTPSSGATPRNRLLLQLLGSPGRRYYSLPPHQKVPLPSLSPTMQAGTIARWEKKEGDKINEGDLIAEVETDKATVGFESLEECYMAKILVAEGTRDVPIGAIICITVGKPEDIEAFKNYTLDSSAAPTPQAAPAPTPAATASPPTPSAQAPGSSYPPHMQVLLPALSPTMTMGTVQRWEKKVGEKLSEGDLLAEIETDKATIGFEVQEEGYLAKILVPEGTRDVPLGTPLCIIVEKEADISAFADYRPTEVTDLKPQVPPPTPPPVAAVPPTPQPLAPTPSAPCPATPAGPKGRVFVSPLAKKLAVEKGIDLTQVKGTGPDGRITKKDIDSFVPSKVAPAPAAVVPPTGPGMAPVPTGVFTDIPISNIRRVIAQRLMQSKQTIPHYYLSIDVNMGEVLLVRKELNKILEGRSKISVNDFIIKASALACLKVPEANSSWMDTVIRQNHVVDVSVAVSTPAGLITPIVFNAHIKGVETIANDVVSLATKAREGKLQPHEFQGGTFTISNLGMFGIKNFSAIINPPQACILAIGASEDKLVPADNEKGFDVASMMSVTLSCDHRVVDGAVGAQWLAEFRKYLEKPITMLL
modifications: full-length
In the case of B7, the “Ratio of expression Cond. CDLs/Cond. Ghosts” value was found to be 4% and the “Ratio of expression Cond Ghosts/Ghosts” value is listed as 100%.

B8: O95571 (protein, UniProt O95571 1-254, looked up)
chain: MAEAVLRVARRQLSQRGGSGAPILLRQMFEPVSCTFTYLLGDRESREAVLIDPVLETAPRDAQLIKELGLRLLYAVNTHCHADHITGSGLLRSLLPGCQSVISRLSGAQADLHIEDGDSIRFGRFALETRASPGHTPGCVTFVLNDHSMAFTGDALLIRGCGRTDFQQGCAKTLYHSVHEKIFTLPGDCLIYPAHDYHGFTVSTVEEERTLNPRLTLSCEEFVKIMGNLNLPKPQQIDFAVPANMRCGVQTPTA
modifications: full-length
Regarding B8, the “Ratio of expression Cond. CDLs/Cond. Ghosts” value is listed as 4% and the “Ratio of expression Cond Ghosts/Ghosts” value worked out at 100%.

B9: Q9BS26 (protein, UniProt Q9BS26 1-406, looked up)
chain: MHPAVFLSLPDLRCSLLLLVTWVFTPVTTEITSLDTENIDEILNNADVALVNFYADWCRFSQMLHPIFEEASDVIKEEFPNENQVVFARVDCDQHSDIAQRYRISKYPTLKLFRNGMMMKREYRGQRSVKALADYIRQQKSDPIQEIRDLAEITTLDRSKRNIIGYFEQKDSDNYRVFERVANILHDDCAFLSAFGDVSKPERYSGDNIIYKPPGHSAPDMVYLGAMTNFDVTYNWIQDKCVPLVREITFENGEELTEEGLPFLILFHMKEDTESLEIFQNEVARQLISEKGTINFLHADCDKFRHPLLHIQKTPADCPVIAIDSFRHMYVFGDFKDVLIPGKLKQFVFDLHSGKLHREFHHGPDPTDTAPGEQAQDVASSPPESSFQKLAPSEYRYTLLRDRDEL
modifications: full-length
For the molecule B9, the “Ratio of expression Cond. CDLs/Cond. Ghosts” value came to 4% and the “Ratio of expression Cond Ghosts/Ghosts” value is recorded as 100%.

Values taken from US11065203B2, “Liposomal compositions and uses of same” (Technion Research & Development Foundation Limited, priority 2009, dated 2021).
